Measurements: PMC7733513
Where two headings read alike, the source gives them in different places. Results are given in words; binding and its absence hold for the method and conditions named. In cells and extracts the contact can be indirect. Some results given as binding are weak or reduced against the parent protein; the word gives no strength. For some assays here: Tags and fused reporters may be left off the sequences shown.

Amino acid sequences for entries named in this document (tags omitted). A change or cut given only in a name is not applied to a line headed by its entry. Residues count along the entry.
UniProt P04279: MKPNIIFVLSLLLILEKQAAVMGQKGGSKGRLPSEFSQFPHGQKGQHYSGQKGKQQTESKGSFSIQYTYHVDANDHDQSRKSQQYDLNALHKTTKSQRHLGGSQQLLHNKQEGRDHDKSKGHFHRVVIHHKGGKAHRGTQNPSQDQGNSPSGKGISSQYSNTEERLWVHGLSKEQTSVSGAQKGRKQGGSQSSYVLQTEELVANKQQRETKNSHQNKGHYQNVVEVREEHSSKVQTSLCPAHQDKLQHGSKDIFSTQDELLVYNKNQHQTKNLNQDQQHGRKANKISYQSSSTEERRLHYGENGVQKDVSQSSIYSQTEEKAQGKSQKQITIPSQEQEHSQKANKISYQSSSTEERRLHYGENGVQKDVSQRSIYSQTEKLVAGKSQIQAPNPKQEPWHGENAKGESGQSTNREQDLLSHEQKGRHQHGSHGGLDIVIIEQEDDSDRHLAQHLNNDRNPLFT
GST-SEMG1 (truncated SEMG1 lacking the signal peptide, 23-461 a.a.): residues 23-461 of P04279
3×Flag-SEMG1 (full-length SEMG1): residues 24-462 of P04279
UniProt P14618: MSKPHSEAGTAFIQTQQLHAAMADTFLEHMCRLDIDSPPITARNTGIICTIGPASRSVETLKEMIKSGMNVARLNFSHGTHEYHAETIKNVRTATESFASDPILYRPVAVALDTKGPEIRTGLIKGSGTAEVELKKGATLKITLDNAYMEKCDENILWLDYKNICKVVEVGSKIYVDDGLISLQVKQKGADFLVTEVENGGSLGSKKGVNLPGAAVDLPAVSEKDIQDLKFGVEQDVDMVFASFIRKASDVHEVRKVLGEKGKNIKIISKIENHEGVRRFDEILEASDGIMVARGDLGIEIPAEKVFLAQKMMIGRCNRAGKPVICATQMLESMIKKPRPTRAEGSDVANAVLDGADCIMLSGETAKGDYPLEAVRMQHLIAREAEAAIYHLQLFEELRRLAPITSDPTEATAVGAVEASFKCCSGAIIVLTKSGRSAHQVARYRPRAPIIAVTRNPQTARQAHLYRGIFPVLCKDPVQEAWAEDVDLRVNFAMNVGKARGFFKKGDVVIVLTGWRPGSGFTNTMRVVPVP

How the values were obtained:
[1] = molecular target: T1, 3×Flag-SEMG2 (full-length SEMG2) (human) (UniProt Q02383); assay: co-IP; HEK293T transfected with 3×Flag-SEMG1 or 3×Flag-SEMG2 (empty vector as control); anti-Flag M2 agarose 4 h, 50 mM Tris-HCl pH 7.4, 150 mM NaCl, 20 mM EDTA, 0.1% Triton X-100; washed with TBS; western blot
T1 sequence: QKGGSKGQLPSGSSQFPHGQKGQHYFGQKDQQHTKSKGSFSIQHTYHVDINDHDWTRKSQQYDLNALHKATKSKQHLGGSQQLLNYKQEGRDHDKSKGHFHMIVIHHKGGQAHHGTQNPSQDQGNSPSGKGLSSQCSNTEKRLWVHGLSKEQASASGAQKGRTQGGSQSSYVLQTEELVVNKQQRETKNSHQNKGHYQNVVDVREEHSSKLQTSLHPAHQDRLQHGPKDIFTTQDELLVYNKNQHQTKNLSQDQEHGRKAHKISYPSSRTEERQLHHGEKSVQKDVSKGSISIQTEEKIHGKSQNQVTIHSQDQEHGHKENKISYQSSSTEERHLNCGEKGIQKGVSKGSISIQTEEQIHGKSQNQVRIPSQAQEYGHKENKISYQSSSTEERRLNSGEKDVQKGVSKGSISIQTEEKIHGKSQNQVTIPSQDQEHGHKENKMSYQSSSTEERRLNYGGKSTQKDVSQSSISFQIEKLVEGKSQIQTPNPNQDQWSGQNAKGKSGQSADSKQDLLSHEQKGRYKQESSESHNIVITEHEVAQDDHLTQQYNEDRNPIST

[2] = molecular target: 3×Flag-SEMG1 (full-length SEMG1) (human) (UniProt P04279); assay: as above
[3] = molecular target: GST-SEMG1 (truncated SEMG1 lacking the signal peptide, 23-461 a.a.) (human) (UniProt P04279); assay: pull-down; 50 µg GST-SEMG1 or GST-SEMG2 (GST as control) incubated 3 h with MCF7 cell extract pre-incubated with GST; western blot with antibodies against LDHA, PKM2 and IDH2; only the target purified
[4] = molecular target: 3×Flag-tagged PKM2 (full length) (human) (UniProt P14618); assay: co-IP; reciprocal: H520 cells transiently transfected with 3×Flag-LDHA, 3×Flag-PKM2 or empty vector; anti-Flag M2 agarose 48 h after transfection; blot of endogenous SEMG1 and SEMG2
[5] = molecular target: T1, 3×Flag-SEMG2 (full-length SEMG2) (human); assay: co-IP; HEK293T transfected with 3×Flag-SEMG1 or 3×Flag-SEMG2 (empty vector as control); anti-Flag M2 agarose 4 h, 50 mM Tris-HCl pH 7.4, 150 mM NaCl, 20 mM EDTA, 0.1% Triton X-100; washed with TBS; western blot; remark: listed apart in the source
[6] = molecular target: 3×Flag-SEMG1 (full-length SEMG1) (human) (UniProt P04279); assay: as above; remark: listed apart in the source
[7] = molecular target: GST-SEMG1 (truncated SEMG1 lacking the signal peptide, 23-461 a.a.) (human) (UniProt P04279); assay: pull-down; 50 µg GST-SEMG1 or GST-SEMG2 (GST as control) incubated 3 h with MCF7 cell extract pre-incubated with GST; western blot with antibodies against LDHA, PKM2 and IDH2; only the target purified; remark: listed apart in the source

For “PKM2, endogenous in HEK293T cells (from UniProt P14618-1 1-531) (enzyme)”, the binding [1] was “binds” and the binding [2] was “binds”.

For “pyruvate kinase M2 (PKM2), endogenous in MCF7 cell extract (from UniProt P14618-1 1-531) (enzyme)”, the binding [3] was “binds”.

“endogenous SEMG1 in H520 cells (from UniProt P04279-1 24-462)” was tested, and the binding [4] was “binds”.

B1: IDH2, endogenous in HEK293T cells (enzyme, UniProt P48735 40-452)
chain: ADKRIKVAKPVVEMDGDEMTRIIWQFIKEKLILPHVDIQLKYFDLGLPNRDQTDDQVTIDSALATQKYSVAVKCATITPDEARVEEFKLKKMWKSPNGTIRNILGGTVFREPIICKNIPRLVPGWTKPITIGRHAHGDQYKATDFVADRAGTFKMVFTPKDGSGVKEWEVYNFPAGGVGMGMYNTDESISGFAHSCFQYAIQKKWPLYMSTKNTILKAYDGRFKDIFQEIFDKHYKTDFDKNKIWYEHRLIDDMVAQVLKSSGGFVWACKNYDGDVQSDILAQGFGSLGLMTSVLVCPDGKTIEAEAAHGTVTRHYREHQKGRPTSTNPIASIFAWTRGLEHRGKLDGNQDLIRFAQMLEKVCVETVESGAMTKDLAGCIHGLSNVKLNEHFLNTTDFLDTIKSNLDRALGRQ
With B1 the binding [5] was “binds” and the binding [6] was “binds”.

B2: endogenous SEMG2 in H520 cells (protein, UniProt Q02383 24-582)
chain: QKGGSKGQLPSGSSQFPHGQKGQHYFGQKDQQHTKSKGSFSIQHTYHVDINDHDWTRKSQQYDLNALHKATKSKQHLGGSQQLLNYKQEGRDHDKSKGHFHMIVIHHKGGQAHHGTQNPSQDQGNSPSGKGLSSQCSNTEKRLWVHGLSKEQASASGAQKGRTQGGSQSSYVLQTEELVVNKQQRETKNSHQNKGHYQNVVDVREEHSSKLQTSLHPAHQDRLQHGPKDIFTTQDELLVYNKNQHQTKNLSQDQEHGRKAHKISYPSSRTEERQLHHGEKSVQKDVSKGSISIQTEEKIHGKSQNQVTIHSQDQEHGHKENKISYQSSSTEERHLNCGEKGIQKGVSKGSISIQTEEQIHGKSQNQVRIPSQAQEYGHKENKISYQSSSTEERRLNSGEKDVQKGVSKGSISIQTEEKIHGKSQNQVTIPSQDQEHGHKENKMSYQSSSTEERRLNYGGKSTQKDVSQSSISFQIEKLVEGKSQIQTPNPNQDQWSGQNAKGKSGQSADSKQDLLSHEQKGRYKQESSESHNIVITEHEVAQDDHLTQQYNEDRNPIST
With B2 the binding [4] was “binds”.

B3: IDH2, endogenous in MCF7 cell extract (enzyme, UniProt P48735 40-452)
chain: ADKRIKVAKPVVEMDGDEMTRIIWQFIKEKLILPHVDIQLKYFDLGLPNRDQTDDQVTIDSALATQKYSVAVKCATITPDEARVEEFKLKKMWKSPNGTIRNILGGTVFREPIICKNIPRLVPGWTKPITIGRHAHGDQYKATDFVADRAGTFKMVFTPKDGSGVKEWEVYNFPAGGVGMGMYNTDESISGFAHSCFQYAIQKKWPLYMSTKNTILKAYDGRFKDIFQEIFDKHYKTDFDKNKIWYEHRLIDDMVAQVLKSSGGFVWACKNYDGDVQSDILAQGFGSLGLMTSVLVCPDGKTIEAEAAHGTVTRHYREHQKGRPTSTNPIASIFAWTRGLEHRGKLDGNQDLIRFAQMLEKVCVETVESGAMTKDLAGCIHGLSNVKLNEHFLNTTDFLDTIKSNLDRALGRQ
With B3 the binding [7] was “binds”.
